1 compound from US9556179B2 (BRISTOL-MYERS SQUIBB COMPANY, priority 2012, dated 2017) can be followed below.

Protein sequences, listed by entry. Tags and fused reporters are not part of them. Lines headed by an entry give the natural chain unless they say otherwise; changes in a name come on top.
UniProt P49674, whole entry: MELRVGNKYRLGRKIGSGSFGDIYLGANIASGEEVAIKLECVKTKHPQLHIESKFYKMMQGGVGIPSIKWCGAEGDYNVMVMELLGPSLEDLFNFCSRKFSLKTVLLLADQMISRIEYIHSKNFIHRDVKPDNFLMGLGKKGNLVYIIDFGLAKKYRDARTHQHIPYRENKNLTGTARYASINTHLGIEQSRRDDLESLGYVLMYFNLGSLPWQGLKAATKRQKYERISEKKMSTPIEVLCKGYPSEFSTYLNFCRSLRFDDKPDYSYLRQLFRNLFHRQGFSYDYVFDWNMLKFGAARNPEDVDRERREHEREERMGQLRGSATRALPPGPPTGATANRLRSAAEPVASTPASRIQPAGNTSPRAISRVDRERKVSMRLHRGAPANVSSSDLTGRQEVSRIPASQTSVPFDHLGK
UniProt P48730, whole entry: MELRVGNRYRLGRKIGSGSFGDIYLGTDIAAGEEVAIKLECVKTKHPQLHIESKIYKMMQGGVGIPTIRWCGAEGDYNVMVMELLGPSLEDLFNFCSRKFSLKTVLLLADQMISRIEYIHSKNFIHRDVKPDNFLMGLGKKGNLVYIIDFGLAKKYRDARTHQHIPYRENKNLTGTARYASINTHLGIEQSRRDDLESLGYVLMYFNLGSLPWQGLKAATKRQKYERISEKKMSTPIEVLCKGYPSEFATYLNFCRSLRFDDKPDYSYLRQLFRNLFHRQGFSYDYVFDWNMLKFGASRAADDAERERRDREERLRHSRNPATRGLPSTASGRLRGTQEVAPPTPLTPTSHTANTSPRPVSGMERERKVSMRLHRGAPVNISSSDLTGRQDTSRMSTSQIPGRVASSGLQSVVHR

The structures appear in SMILES notation. Structures were worked out from names or drawings and are uncertain.

In assay [1] the target is CK1ε (Homo sapiens (Human), UniProt P49674). The assay is described as follows: CK1ε kinase assay (Caliper LABCHIP electrophoretic separation of fluoresceinated peptide substrate and product). Format: biochemical. As to conditions: read-out: CK1ε (IC50); 200 pM enzyme, 50 μM ATP, 22 hours at room temperature.
Assay [2] concerns the target CK1δ (Homo sapiens (Human), UniProt P48730). The assay is described as follows: CK1δ kinase assay (Caliper LABCHIP electrophoretic separation of fluoresceinated peptide substrate and product). It is filed as biochemical. The conditions noted are these: read-out: CK1δ (IC50); 200 pM enzyme, 50 μM ATP, 22 hours at room temperature.

Usually IC50 stands for the concentration needed to halve the response being measured.

`Cc1nc(-c2ccc(F)cc2)c(-c2ccc3nc(NC(=O)C4CCN(Cc5ccccc5)CC4)cn3n2)n1C`: the IC50 in assay [1] was found to be 6.47 nM; in assay [2], 3.17 nM.
